Assay results: publication doi:10.1101/2025.03.04.641150
These are yes or no findings as the source states them, for the method shown. Some binding calls cover weakened binding; strength is not graded here.

Sequences of proteins named here, by UniProt entry; tags and fusion partners are left off.
UniProt Q13148: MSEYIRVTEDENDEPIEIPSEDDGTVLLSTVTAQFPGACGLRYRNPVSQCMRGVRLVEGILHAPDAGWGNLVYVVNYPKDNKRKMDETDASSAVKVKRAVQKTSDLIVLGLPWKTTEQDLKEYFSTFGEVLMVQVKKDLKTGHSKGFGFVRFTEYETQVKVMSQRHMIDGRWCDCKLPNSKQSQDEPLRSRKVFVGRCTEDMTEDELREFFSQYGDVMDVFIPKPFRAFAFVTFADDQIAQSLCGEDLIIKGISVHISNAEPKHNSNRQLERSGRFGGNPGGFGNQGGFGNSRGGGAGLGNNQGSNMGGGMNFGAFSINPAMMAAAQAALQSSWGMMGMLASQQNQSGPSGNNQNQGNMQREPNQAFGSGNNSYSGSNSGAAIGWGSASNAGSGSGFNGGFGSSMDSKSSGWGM

Target: TAR DNA-binding protein 43 (TDP-43) (human (endogenous in post-mortem brain tissue)) (UniProt Q13148)
Test: single-molecule pulldown

B1: calnexin (CANX) (protein, UniProt P27824 21-592)
chain: HDGHDDDVIDIEDDLDDVIEEVEDSKPDTTAPPSSPKVTYKAPVPTGEVYFADSFDRGTLSGWILSKAKKDDTDDEIAKYDGKWEVEEMKESKLPGDKGLVLMSRAKHHAISAKLNKPFLFDTKPLIVQYEVNFQNGIECGGAYVKLLSKTPELNLDQFHDKTPYTIMFGPDKCGEDYKLHFIFRHKNPKTGIYEEKHAKRPDADLKTYFTDKKTHLYTLILNPDNSFEILVDQSVVNSGNLLNDMTPPVNPSREIEDPEDRKPEDWDERPKIPDPEAVKPDDWDEDAPAKIPDEEATKPEGWLDDEPEYVPDPDAEKPEDWDEDMDGEWEAPQIANPRCESAPGCGVWQRPVIDNPNYKGKWKPPMIDNPSYQGIWKPRKIPNPDFFEDLEPFRMTPFSAIGLELWSMTSDIFFDNFIICADRRIVDDWANDGWGLKKAADGAAEPGVVGQMIEAAEERPWLWVVYILTVALPVFLVILFCCSGKKQTSGMEYKKTDAPQPDVKEEEEEKEEEKDKGDEEEEGEEKLEEKQKSDAEEDGGTVSQEEEDRKPKAEEDEILNRSPRNRKPRRE
B1 was tested, and the binding was “binds”.
